Earlier results, collected in patent publication US20030099944A1, “Combination therapy involving drugs which target cellular proteins and drugs which target pathogen-encoded proteins” (priority 1998, published 2003).

Tested on: a wide variety of mammalian cells
Details: read-out: average IC50, block of cell-cycle progression; cited from earlier work

## CC[C@H](CO)Nc1nc(NCc2ccccc2)c2ncn(C(C)C)c2n1 [Rosco, Roscovitine]
  IC50: 16 µM
